Test results reported in PubChem BioAssay AID1487 (National Center for Advancing Translational Sciences (NCATS), 2009).
Several values for one entry are separate records, joined by “and”; a condition that tells them apart may be missing. Equal entries are not always repeated. The list shows a part of the results. The main result of the screen is listed elsewhere. These columns were measured beside it and carry no call. Compounds called inactive in the main read-out are mostly missing here. The note in brackets gives the kind of curve behind each potency; many fits are weak.

Assay: qHTS Assay for Modulators of Lamin A Splicing
Conditions: HeLa LMNA splicing GFP/RFP minigene ratio, 48 h
Summary of the method: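 Read-out is the ratio of GFP to DsRed2 object intensity, acquired by 488 nm laser-scanning cytometry on HeLa lamin A-EGFP minigene reporter cells. Compound incubation 48 hrs at 37 °C in Opti-MEM with 2% FBS; DMSO 0.5% final.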

[1] = measured here: RFP viability control channel
[2] = measured here: GFP splicing reporter channel

Row | SMILES | AC50 [1] | AC50 [2]
1 | Cc1ccc2c(c1)cc(C(=O)NCc1ccc(F)cc1)n2C | 3.98 µM [rising, partial curve, poor fit] | 
2 | Cc1cnc([N+](=O)[O-])n1CCOC(=O)NC(=O)c1c(F)cccc1F |  | 6.31 µM [falling, partial curve, poor fit]
3 | CCOCC(=O)Nc1ccc(-c2cn3c(C)csc3n2)cc1 |  | 0.891 µM [rising, full curve, poor fit]
4 | CC(C)NCC(O)COc1ccc(CCOCC2CC2)cc1 (stereo not given) | 25.1 µM [falling, partial curve] and 35.5 µM [falling, single point] | 25.1 µM [falling, partial curve, poor fit] and 35.5 µM [falling, single point]
5 | CC(C)CC(=O)NC(Nc1ccc([N+](=O)[O-])cc1)C(Cl)(Cl)Cl (stereo not given) |  | 4.47 µM [rising, partial curve]
6 | Cc1ccc(NC(=O)Nc2nc3c(s2)CCCCCC3)cc1C | 11.2 µM [falling, partial curve, poor fit] | 11.2 µM [falling, partial curve, poor fit]
7 | O=C(Nc1cccnc1)c1ccc(CN2CCc3ccccc3C2)cc1 | 17.8 µM [rising, partial curve] | 12.6 µM [rising, partial curve, poor fit]
8 | CC(=O)/C=C/c1ccccc1O | 12.6 µM [rising, partial curve, poor fit] | 15.8 µM [rising, single point]
9 | O=C(NC1CC(=O)N(c2ccc(F)cc2)C1)c1ccc(S(=O)(=O)N2CCCC2)cc1 (stereo not given) | 12.6 µM [falling, partial curve] | 8.91 µM [falling, partial curve, poor fit]
10 | CCNc1ncc2nc(-c3ccc(OC)cc3)c(=O)n(Cc3cccs3)c2n1 | 12.6 µM [falling, partial curve] | 12.6 µM [falling, single point]
11 | COc1cc([C@H]2c3cc4c(cc3[C@@H](O[C@H]3O[C@H]5CO[C@@H](C)O[C@H]5[C@@H](O)[C@@H]3O)[C@@H]3COC(=O)[C@H]23)OCO4)cc(OC)c1O | 0.0355 µM [rising, full curve, poor fit] | 0.00631 µM [falling, full curve]
12 | CC(=O)Nc1ccccc1OCC(=O)c1cc(C)n(Cc2cccs2)c1C | 0.126 µM [rising, full curve] | 0.126 µM [rising, full curve]
13 | CCOC(=O)C1(Cc2cccc(OC)c2)CCN(Cc2ccc(OC)c(OC)c2)CC1 |  | 0.0631 µM [falling, full curve, poor fit]
14 | O=C(COc1nc2ccccc2nc1N1CCOCC1)Nc1ccc(S(=O)(=O)N2CCCC2)cc1 |  | 15.8 µM [rising, single point]
15 | Clc1ccc2c(N/N=C/c3cccc(Br)c3)ccnc2c1 | 15.8 µM [rising, partial curve, poor fit] | 
16 | Cc1cccc(NC(=S)NNC(=O)c2csc3c2CCC(C)C3)c1 (stereo not given) | 35.5 µM [rising, single point] | 
17 | Cc1ccc(NC(=S)N(Cc2cccs2)Cc2cc3cc(C)ccc3[nH]c2=O)cc1 | 2.82 µM [rising, full curve] | 
18 | C#CCOc1ccc(/C=N/O)cc1Cl | 35.5 µM [falling, partial curve, poor fit] | 
19 | COc1ccc(CNc2ccnc(-c3ccccc3OC)n2)c(OC)c1 |  | 8.91 µM [falling, partial curve]
20 | CCOc1cc(C(=S)N2CCC(O)CC2)ccc1OS(=O)(=O)c1ccc(Br)cc1 | 15.8 µM [rising, single point] | 14.1 µM [rising, single point]
21 | COc1ccccc1-c1cc(C(F)(F)F)nc(S(=O)(=O)CCCC(=O)NC(C)C)n1 | 3.16 µM [falling, full curve] | 2.51 µM [falling, full curve]
22 | Cc1nc(SCc2ccccc2F)c2cnn(-c3ccccc3)c2n1 | 11.2 µM [rising, single point] | 1.58 µM [falling, full curve]
23 | CCC1CCCCN1CCCNC(=O)Cn1nc(-c2ccccc2)ccc1=O (stereo not given) | 20 µM [rising, single point] | 
24 | Cc1c(C(=O)NN2CCCCC2)nn(-c2ccc(Cl)cc2Cl)c1-c1ccc(Cl)cc1 | 0.000891 µM [falling, full curve, poor fit] | 0.000891 µM [falling, full curve, poor fit]
25 | Cc1cccc(CNc2ncnc3ccc(-c4ccoc4)cc23)c1 | 11.2 µM [falling, partial curve] | 20 µM [falling, partial curve]
26 | O=C(c1cc(COc2ccc(F)cc2F)on1)N1CCCC(c2ccccc2)C1 (stereo not given) | 14.1 µM [rising, partial curve] | 11.2 µM [rising, partial curve]

Part of the list above, field by field.
CC(C)NCC(O)COc1ccc(CCOCC2CC2)cc1 (stereo not given)
  AC50 [1]: 25.1 µM [falling, partial curve] and 35.5 µM [falling, single point]; AC50 [2]: 25.1 µM [falling, partial curve, poor fit] and 35.5 µM [falling, single point]
O=C(Nc1cccnc1)c1ccc(CN2CCc3ccccc3C2)cc1
  AC50 [1]: 17.8 µM [rising, partial curve]; AC50 [2]: 12.6 µM [rising, partial curve, poor fit]
